Reference: the supplement of paper PMC12819154, “High-throughput peptide-centric local stability assay extends protein–ligand identification to membrane proteins, tissues and bacteria” (Nature Structural & Molecular Biology, 2025)
The other results are listed elsewhere or left out. Most entries show no effect beyond the scatter of the controls.

Chains of the proteins cited; added tags and fusions are not shown. Lines headed by an entry give the natural chain unless they say otherwise; changes in a name come on top.
UniProt Q92575: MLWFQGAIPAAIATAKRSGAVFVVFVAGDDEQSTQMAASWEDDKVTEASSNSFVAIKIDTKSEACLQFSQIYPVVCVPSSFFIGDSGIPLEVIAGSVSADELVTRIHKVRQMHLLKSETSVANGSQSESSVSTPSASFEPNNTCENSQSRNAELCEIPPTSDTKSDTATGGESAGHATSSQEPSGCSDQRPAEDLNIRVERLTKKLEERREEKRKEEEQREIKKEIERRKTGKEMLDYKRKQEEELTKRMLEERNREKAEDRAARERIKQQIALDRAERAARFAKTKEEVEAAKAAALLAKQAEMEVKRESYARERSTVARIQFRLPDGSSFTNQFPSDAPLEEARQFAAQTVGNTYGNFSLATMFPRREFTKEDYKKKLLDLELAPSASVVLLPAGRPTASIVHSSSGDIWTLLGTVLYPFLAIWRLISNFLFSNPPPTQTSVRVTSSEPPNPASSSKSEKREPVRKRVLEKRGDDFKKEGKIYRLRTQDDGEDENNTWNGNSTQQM
UniProt Q8WUM9: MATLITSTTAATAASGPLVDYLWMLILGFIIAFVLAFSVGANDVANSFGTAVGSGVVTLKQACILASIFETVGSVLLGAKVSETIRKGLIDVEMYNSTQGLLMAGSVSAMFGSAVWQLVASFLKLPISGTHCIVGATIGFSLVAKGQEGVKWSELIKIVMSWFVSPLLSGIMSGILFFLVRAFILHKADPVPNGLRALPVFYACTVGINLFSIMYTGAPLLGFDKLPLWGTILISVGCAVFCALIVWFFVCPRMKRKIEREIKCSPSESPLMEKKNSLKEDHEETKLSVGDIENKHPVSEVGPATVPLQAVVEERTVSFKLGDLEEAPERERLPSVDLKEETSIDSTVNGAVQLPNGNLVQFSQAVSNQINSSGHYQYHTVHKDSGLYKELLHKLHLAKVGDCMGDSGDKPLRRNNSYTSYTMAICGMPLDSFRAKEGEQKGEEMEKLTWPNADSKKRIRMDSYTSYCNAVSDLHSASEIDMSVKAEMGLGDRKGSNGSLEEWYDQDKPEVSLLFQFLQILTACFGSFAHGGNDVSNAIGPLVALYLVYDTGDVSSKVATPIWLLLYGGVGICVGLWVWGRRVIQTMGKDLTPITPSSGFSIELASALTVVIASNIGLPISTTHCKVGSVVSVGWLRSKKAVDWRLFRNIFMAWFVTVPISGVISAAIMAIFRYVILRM
UniProt Q92562: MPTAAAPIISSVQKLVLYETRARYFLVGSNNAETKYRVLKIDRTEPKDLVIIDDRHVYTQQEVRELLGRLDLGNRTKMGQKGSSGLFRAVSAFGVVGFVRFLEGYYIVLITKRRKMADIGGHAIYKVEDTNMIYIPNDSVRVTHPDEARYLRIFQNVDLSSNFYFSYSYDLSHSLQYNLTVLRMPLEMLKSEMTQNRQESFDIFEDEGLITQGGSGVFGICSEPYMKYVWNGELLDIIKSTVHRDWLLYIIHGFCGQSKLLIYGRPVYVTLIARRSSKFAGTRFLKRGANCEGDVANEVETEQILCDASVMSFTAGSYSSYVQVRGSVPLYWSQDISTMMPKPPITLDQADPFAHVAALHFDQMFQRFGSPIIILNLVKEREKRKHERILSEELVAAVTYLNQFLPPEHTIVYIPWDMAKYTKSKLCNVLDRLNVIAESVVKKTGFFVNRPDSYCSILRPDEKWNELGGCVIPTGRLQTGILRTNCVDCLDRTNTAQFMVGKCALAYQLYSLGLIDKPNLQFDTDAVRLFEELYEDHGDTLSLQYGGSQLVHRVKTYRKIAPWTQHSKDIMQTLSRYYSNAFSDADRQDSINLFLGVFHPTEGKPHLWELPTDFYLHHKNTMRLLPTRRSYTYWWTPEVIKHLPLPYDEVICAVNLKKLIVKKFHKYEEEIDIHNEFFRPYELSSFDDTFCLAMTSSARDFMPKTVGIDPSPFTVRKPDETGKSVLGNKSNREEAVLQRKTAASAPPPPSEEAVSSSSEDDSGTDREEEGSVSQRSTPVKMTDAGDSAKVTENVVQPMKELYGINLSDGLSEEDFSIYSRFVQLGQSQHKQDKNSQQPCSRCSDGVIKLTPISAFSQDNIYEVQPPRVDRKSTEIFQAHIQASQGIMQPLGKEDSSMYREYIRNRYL
UniProt Q92796: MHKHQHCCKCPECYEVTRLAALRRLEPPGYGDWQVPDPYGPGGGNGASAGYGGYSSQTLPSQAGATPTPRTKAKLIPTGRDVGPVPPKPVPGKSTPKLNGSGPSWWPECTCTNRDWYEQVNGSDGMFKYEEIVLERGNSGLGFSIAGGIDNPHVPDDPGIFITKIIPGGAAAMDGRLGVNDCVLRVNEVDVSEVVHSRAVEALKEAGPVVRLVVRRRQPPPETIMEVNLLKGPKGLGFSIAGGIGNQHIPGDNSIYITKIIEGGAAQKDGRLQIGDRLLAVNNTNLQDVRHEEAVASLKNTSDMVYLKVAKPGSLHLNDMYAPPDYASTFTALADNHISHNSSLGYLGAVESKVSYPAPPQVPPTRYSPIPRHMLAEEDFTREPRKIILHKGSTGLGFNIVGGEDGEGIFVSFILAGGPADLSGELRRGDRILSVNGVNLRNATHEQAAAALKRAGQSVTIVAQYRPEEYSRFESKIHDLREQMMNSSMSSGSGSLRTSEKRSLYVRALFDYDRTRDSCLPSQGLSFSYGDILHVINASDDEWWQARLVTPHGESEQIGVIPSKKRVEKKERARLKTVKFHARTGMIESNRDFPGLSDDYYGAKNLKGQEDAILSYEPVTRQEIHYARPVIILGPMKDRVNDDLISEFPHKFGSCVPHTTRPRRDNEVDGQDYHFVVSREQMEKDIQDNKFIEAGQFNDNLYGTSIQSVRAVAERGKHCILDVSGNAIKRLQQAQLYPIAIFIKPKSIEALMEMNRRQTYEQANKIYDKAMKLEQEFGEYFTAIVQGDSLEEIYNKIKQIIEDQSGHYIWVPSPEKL
UniProt Q92793, whole entry, looked up: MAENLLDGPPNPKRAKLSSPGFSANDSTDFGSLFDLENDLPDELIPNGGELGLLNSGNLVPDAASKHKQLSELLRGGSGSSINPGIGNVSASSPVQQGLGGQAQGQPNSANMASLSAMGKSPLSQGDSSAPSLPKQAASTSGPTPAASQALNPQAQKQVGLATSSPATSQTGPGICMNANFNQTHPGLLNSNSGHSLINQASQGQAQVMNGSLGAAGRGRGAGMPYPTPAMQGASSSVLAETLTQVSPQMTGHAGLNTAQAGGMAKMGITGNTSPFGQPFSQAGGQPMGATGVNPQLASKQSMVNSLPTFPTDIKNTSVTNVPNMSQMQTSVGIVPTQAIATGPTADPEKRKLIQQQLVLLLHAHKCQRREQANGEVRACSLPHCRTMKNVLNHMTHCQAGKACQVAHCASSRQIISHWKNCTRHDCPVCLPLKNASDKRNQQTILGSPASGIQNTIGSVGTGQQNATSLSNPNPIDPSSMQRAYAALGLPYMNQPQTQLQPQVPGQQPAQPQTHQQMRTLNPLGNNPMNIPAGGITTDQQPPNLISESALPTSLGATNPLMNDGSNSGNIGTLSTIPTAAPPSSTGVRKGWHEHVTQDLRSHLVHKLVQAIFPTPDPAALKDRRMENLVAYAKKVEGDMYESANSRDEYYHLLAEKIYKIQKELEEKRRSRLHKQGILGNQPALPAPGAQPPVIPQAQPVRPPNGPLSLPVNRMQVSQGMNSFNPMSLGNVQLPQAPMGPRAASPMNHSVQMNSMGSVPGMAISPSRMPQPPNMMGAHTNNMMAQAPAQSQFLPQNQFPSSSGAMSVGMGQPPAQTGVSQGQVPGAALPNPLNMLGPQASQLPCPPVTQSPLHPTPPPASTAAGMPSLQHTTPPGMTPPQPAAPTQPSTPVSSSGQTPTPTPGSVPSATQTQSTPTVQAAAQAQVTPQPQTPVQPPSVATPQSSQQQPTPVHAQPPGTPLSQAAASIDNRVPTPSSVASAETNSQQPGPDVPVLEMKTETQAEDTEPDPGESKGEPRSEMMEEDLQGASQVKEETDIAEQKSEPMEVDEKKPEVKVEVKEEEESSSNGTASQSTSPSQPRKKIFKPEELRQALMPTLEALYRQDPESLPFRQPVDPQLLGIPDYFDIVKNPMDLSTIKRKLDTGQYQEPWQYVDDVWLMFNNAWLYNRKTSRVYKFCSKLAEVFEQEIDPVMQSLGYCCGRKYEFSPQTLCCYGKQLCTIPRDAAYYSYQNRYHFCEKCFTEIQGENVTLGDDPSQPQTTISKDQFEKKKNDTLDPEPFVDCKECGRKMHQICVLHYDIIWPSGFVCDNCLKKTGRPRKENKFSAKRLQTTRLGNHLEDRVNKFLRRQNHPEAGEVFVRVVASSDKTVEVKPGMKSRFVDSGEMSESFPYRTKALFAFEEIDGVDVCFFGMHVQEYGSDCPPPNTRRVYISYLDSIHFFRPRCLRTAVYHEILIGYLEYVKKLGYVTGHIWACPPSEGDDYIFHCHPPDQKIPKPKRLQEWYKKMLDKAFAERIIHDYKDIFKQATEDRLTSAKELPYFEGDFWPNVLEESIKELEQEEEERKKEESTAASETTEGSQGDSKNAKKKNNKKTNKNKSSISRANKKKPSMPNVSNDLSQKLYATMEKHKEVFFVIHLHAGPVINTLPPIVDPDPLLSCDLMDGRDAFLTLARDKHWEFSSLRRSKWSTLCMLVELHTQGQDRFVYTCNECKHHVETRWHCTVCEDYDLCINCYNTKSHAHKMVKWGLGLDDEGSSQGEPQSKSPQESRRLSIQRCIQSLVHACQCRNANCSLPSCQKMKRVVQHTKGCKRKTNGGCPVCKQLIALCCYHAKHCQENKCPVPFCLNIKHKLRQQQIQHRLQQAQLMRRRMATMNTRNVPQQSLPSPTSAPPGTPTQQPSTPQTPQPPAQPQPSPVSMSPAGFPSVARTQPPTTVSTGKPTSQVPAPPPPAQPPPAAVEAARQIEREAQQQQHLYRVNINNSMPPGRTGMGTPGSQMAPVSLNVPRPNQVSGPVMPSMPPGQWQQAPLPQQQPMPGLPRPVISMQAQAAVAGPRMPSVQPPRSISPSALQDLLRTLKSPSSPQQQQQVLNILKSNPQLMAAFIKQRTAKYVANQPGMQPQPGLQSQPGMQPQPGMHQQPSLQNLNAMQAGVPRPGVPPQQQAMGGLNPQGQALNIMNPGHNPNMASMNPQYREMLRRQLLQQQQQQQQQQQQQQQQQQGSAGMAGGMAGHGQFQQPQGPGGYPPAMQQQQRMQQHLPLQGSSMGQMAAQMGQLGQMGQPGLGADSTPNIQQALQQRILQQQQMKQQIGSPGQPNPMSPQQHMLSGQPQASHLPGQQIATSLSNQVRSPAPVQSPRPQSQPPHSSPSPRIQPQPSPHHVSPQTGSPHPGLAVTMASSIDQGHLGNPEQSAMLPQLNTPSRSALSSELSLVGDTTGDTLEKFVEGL
UniProt Q8TBZ3: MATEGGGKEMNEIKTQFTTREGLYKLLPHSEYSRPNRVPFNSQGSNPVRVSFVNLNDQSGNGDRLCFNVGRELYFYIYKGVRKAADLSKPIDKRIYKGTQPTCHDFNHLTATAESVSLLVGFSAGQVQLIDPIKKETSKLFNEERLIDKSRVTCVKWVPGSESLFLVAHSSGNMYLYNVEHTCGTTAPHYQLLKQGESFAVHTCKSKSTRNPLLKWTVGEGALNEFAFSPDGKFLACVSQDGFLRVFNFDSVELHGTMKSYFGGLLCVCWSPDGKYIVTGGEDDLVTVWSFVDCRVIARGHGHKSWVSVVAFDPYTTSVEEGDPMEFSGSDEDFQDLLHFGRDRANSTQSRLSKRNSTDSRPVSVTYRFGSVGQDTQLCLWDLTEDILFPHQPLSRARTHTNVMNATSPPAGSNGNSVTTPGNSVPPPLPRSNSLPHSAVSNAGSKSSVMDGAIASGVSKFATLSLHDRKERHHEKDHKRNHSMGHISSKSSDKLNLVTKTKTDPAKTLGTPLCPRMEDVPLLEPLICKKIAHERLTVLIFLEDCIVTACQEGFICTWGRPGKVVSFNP
UniProt Q92611: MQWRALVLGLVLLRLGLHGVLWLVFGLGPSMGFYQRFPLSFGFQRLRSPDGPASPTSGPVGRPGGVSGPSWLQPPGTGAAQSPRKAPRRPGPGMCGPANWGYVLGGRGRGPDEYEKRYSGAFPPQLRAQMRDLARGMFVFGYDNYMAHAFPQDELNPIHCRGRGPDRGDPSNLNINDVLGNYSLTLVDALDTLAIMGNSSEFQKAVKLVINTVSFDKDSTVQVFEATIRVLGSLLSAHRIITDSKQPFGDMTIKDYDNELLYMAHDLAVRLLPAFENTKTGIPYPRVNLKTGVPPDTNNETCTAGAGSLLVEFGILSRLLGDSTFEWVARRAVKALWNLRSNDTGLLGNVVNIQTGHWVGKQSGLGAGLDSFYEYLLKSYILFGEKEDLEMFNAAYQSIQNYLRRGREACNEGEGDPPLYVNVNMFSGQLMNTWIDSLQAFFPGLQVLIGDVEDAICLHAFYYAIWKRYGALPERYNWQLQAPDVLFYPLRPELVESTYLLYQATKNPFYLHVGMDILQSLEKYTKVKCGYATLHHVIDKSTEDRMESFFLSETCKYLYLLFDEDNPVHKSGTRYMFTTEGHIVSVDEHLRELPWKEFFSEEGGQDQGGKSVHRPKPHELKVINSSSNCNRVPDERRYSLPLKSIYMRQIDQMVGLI

Compound: CN[C@@H]1C[C@H]2O[C@@](C)([C@@H]1OC)n1c3ccccc3c3c4c(c5c6ccccc6n2c5c31)C(=O)NC4 [staurosporine]
Assay: log2 fold change of tryptic peptide abundance, ligand vs vehicle (limited proteolysis) (log2 ratio); higher = more trypsin-susceptible (destabilized)
Details: ligand concentration: 20 uM; sample: K562 cleared lysate; digestion: 4 min, 22 C (HT-PELSA RT4min, Orbitrap Astral)

| Target | log2 fold change |
| --- | --- |
| DGCR8 (peptide sequence: SVIELQQYAKK, peptide start residue: 714) (UniProt Q8WYQ5) | -0.274 |
| EPS8L1 (peptide sequence: WDSCDSLNGLDPSEKEK, peptide start residue: 578) (UniProt Q8TE68) | 0.492 |
| HSPH1 (peptide sequence: IGRFVVQNVSAQK, peptide start residue: 459) (UniProt Q92598) | 0.676 |
| TRIM41 (peptide sequence: LAEQAAQLSR, peptide start residue: 353) (UniProt Q8WV44) | -0.159 |
| UBXN4 (peptide sequence: MLWFQGAIPAAIATAK, peptide start residue: 1) (UniProt Q92575) | 0.433 |
| TGFBRAP1 (peptide sequence: LQGAGLPMESAILHGK, peptide start residue: 660) (UniProt Q8WUH2) | -0.384 |
| ZNF507 (peptide sequence: LPSAEETLSQK, peptide start residue: 402) (UniProt Q8TCN5) | -0.409 |
| SLC20A1 (peptide sequence: VGDCMGDSGDKPLRR, peptide start residue: 400) (UniProt Q8WUM9) | -0.789 |
| PDCD6IP (peptide sequence: KTERDELLK, peptide start residue: 699) (UniProt Q8WUM4) | 0.665 |
| TMEM263 (peptide sequence: VTGGIFSVTK, peptide start residue: 38) (UniProt Q8WUH6) | 0.368 |
| FIG4 (peptide sequence: FVQLGQSQHKQDK, peptide start residue: 821) (UniProt Q92562) | 0.305 |
| SNX33 (peptide sequence: QATGRFEEDFIEKR, peptide start residue: 293) (UniProt Q8WV41) | -0.781 |
| DLG5 (peptide sequence: LGSSSNLQFK, peptide start residue: 1261) (UniProt Q8TDM6) | 0.759 |
| UniProt Q8TF20 (peptide sequence: SFGWSTNLNEYKK, peptide start residue: 721) | -0.513 |
| DLG3 (peptide sequence: TGMIESNR, peptide start residue: 584) (UniProt Q92796) | 0.191 |
| AHCTF1 (peptide sequence: AKPYHLSTSSVFR, peptide start residue: 1016) (UniProt Q8WYP5) | 0.428 |
| CHMP7 (peptide sequence: MSFLFSAFKR, peptide start residue: 31) (UniProt Q8WUX9) | -0.289 |
| CREBBP (peptide sequence: SPAPVQSPRPQSQPPHSSPSPR, peptide start residue: 2345) (UniProt Q92793) | -0.534 |
| CASKIN2 (peptide sequence: SRGSGHSQEQPAPQPSGGDPSPPQER, peptide start residue: 705) (UniProt Q8WXE0) | -0.918 |
| MAML1 (peptide sequence: HRQPPAATAPAPAAPAPR, peptide start residue: 74) (UniProt Q92585) | -0.18 |
| UniProt Q8WUH1 (peptide sequence: DFMLITNK, peptide start residue: 37) | 0.0653 |
| WDR20 (peptide sequence: TLGTPLCPR, peptide start residue: 508) (UniProt Q8TBZ3) | -0.305 |
| NUP205 (peptide sequence: AQIEQVIANCEHK, peptide start residue: 1207) (UniProt Q92621) | 0.333 |
| PSMF1 (peptide sequence: IVSGIITPIHEQWEK, peptide start residue: 134) (UniProt Q92530) | 0.201 |
| EDEM1 (peptide sequence: FPLSFGFQR, peptide start residue: 37) (UniProt Q92611) | -0.576 |
| UniProt Q8WXB1 (peptide sequence: FHKPLATFSFANHTIQIR, peptide start residue: 17) | -0.0447 |

Rewritten with bars between the fields: entries from further up
Target | log2 fold change
EPS8L1 (peptide sequence: WDSCDSLNGLDPSEKEK, peptide start residue: 578) (UniProt Q8TE68) | 0.492
CREBBP (peptide sequence: SPAPVQSPRPQSQPPHSSPSPR, peptide start residue: 2345) (UniProt Q92793) | -0.534
